Literature values in patent US5362630A, “Isolation of pseudomonas salicylate hydroxlase and its use for the identification and quantitation of salicylate in body fluids” (Duke University, priority 1992, dated 1994).
At least one structure is not confirmed: it was looked up by name or label, or the drawing left a doubt.

Assays:
[1] = system: salicylate hydroxylase; settings: substrate or pseudosubstrate of salicylate hydroxylase; read-out: Km of the enzyme; cited from earlier work
[2] = system: Pseudomonas bacterium; settings: culture medium; cited from earlier work

For O=C(O)c1ccccc1O [salicylate], the Km [1] is listed as 2.7 µM and the “concentration that inhibits bacterial growth” value [2] is listed as “above 0.2%”.
